Data: PubChem BioAssay AID2517 (National Center for Advancing Translational Sciences (NCATS), 2010)
Among all 350,000 compounds or so, about 1,200 (0.34%) were called active. The inconclusive results got no clear call from the source; some entries with a clear call stand among them for comparison. Calls follow the shape of the dose curve; as a rule, active = well fitted inhibition curve with a large enough effect; inconclusive = small, poorly fitted or top-dose-only effect; inactive = no such curve, though single readings can be large or run the other way. Where the call is inconclusive, the potency comes from a doubtful curve fit.

The chains behind the UniProt entries cited, without tags or fusion partners.
UniProt P27695, whole entry, looked up: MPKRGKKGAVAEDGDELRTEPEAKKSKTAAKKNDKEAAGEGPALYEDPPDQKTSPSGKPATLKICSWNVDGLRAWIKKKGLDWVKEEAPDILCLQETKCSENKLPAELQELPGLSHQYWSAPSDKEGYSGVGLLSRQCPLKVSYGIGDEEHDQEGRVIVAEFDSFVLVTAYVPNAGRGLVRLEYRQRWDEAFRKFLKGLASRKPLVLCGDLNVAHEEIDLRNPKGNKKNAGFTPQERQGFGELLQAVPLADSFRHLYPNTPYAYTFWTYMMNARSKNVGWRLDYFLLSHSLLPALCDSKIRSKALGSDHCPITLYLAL

target: DNA repair nuclease/redox regulator APEX1 (Homo sapiens) (UniProt P27695); assay: qHTS Assay for Inhibitors of the Human Apurinic/apyrimidinic Endonuclease 1 (APE1); details: recombinant APE1, TAMRA/BHQ-2 abasic DNA cleavage fluorescence; series mostly up to 65.8 µM; also: nearly all actives have a fitted effect of over 55% in size
Summary of the method: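 Incision of a quenched TAMRA/BHQ-2 THF abasic-site duplex (50 nM) by 0.75 nM APE1, after 15 min compound preincubation, measured as fluorescence increase over three 60 s reads. Values normalized to buffer, DMSO and NSC13755 control wells.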
Potency is read from the fitted curve at half-maximal effect.

Structure (SMILES)	Potency
Cc1ccc(-c2nn[nH]n2)o1	inconclusive: 44.7 µM [inhibitor, single point]
CCN1/C(=C/C=C/c2oc3ccc4ccccc4c3[n+]2CC)Oc2ccc3ccccc3c21	active: 25.1 µM
CC(=O)C1=C(O)CCC1=N	inconclusive: 44.7 µM [inhibitor, single point]
C=C(C)C(=O)Nc1cccc(C2=NOC3(C2)C[C@@H](C(N)=O)N(C(=O)/C=C/C=C/C)C3)c1 (some centres undefined)	inconclusive: 22.4 µM [inhibitor, partial curve]
CN1C/C(=C/c2ccc(B(O)O)cc2)C(=O)/C(=C/c2ccc(B(O)O)cc2)C1	inactive
NC(=O)c1cc([N+](=O)[O-])ccc1NCCc1ccccc1	inactive
CC(=O)Nc1ccccc1N(CC(O)Cn1c2ccccc2c2ccccc21)S(=O)(=O)c1ccc(C)cc1 (centres undefined)	inconclusive: 35.5 µM [inhibitor, single point]
CNc1ccc(Br)cc(C(=O)/C=C/c2cccc(OC)c2OC)c1=O	inconclusive: 39.8 µM [inhibitor, single point]
CN(C)CCCN1C(=O)C(=O)/C(=C(/O)c2ccncc2)C1c1cccnc1 (centres undefined)	inconclusive: 44.7 µM [inhibitor, single point]
Cc1cc2ncn(-c3ncnc4sc5c(c34)CCCC5)c2cc1C	inactive
CC(=O)Nc1ccc(C(=O)OCc2ccc(Br)cc2)cc1	inconclusive: 4.47 µM [inhibitor, single point]
COC(=O)Cc1ccc(NC(=O)C(c2ccccc2)c2ccccc2)cc1	inconclusive: 10 µM [inhibitor, single point]
CCOCCCNC(=O)C(NC(=O)Cc1cccs1)c1ccc(C)cc1 (centres undefined)	inconclusive: 44.7 µM [inhibitor, single point]
Clc1ccccc1C1CC(c2ccccc2)=Nc2ccccc2N1 (centres undefined)	inconclusive: 25.1 µM [inhibitor, single point]
O=C(c1ccc(Cl)c(S(=O)(=O)N2CCCCCC2)c1)N1CCN(CCO)CC1	inconclusive: 7.08 µM [inhibitor, single point]
CCOC(=O)/C(C#N)=C1/C=CN(c2ccccc2)C=N1	inconclusive: 22.4 µM [inhibitor, single point]
Cc1ccc(Nc2ccc(N)cc2S(=O)(=O)O)cc1	inconclusive: 20 µM [inhibitor, single point]
COc1ccc(-n2c(=S)[nH]c3cc(C(=O)O)ccc3c2=O)cc1	inconclusive: 35.5 µM [inhibitor, single point]
COc1ccc(Cl)cc1NC(=O)CSc1nnc(Cc2cccn2C)n1-c1ccc(F)cc1	inconclusive: 44.7 µM [inhibitor, single point]

Quoted at random: 2 compounds from above, in no set order.
Structure (SMILES)	Potency
CN(C)CCCN1C(=O)C(=O)/C(=C(/O)c2ccncc2)C1c1cccnc1 (centres undefined)	inconclusive: 44.7 µM [inhibitor, single point]
Cc1cc2ncn(-c3ncnc4sc5c(c34)CCCC5)c2cc1C	inactive
